Laboratory results taken from patent US20120305476A1, “TREATMENT METHOD FOR REDUCING THE PRODUCTION OF AN H2S COMPOUND IN AQUEOUS EFFLUENTS PASSING INTO A PIPE” (CENTRE NATIONAL DE LA RECHERCHE SCIENTIFIQUE (CNRS), priority 2010, published 2012).

Test system: sulfate-reducing bacteria (SRB)
Description: Experiments were carried out on a sewerage system diagrammatically shown in FIG. 6, comprising a cesspool 3 supplied with effluent 1 from a conduit 11, a lifting pump 4 that was used to supply a force main 2 from the cesspool 3 to a holding tank 8 cooperating with a gravity fed transfer conduit 9 to a treatment plant (not shown).
The force main 2 was 1170 m [meter] long with a nominal diameter of 250 mm [millimeter], giving a volume of 57.5 m^3. The delivery of the lifting pump was 150 m^3/hour. A nitrite tank 12 cooperated with a dosing pump 7 to inject nitrite into the effluents entering the force main 2.
Sodium nitrite NaNO2 was tested in 40% by weight solution with a density of 1.3. […]
Various measurements for the concentration of sulfide in water leaving the force main were carried out. The concentration of sulfide in water was determined by means of an assay kit using the reaction of H2S with aniline forming a colorless intermediate that is oxidized by ferric ions to a colored compound: methylene blue, an optical disk comparator with a color gradient, was used to determine the concentration of sulfide in the solution as a function of its color. The temperatures of the effluent and redox potential were measured at the holding tank or settling tank 8 using standard equipment.

| SMILES | flotation in the holding tank (excess nitrite, pump stopped, observed via the manhole) | residual sodium nitrite in the effluents at the outlet from the conduit (more than 5-6 g of NaNO2 per gram of dissolved sulfide H2S produced in the absence of treatment) |
| --- | --- | --- |
| O=NO [nitrite] | fats floated on the surface of the effluent | – |
| O=NO [sodium nitrite] | – | residual traces of sodium nitrite were observed |
